Patent publication US20250340574A1, “MODULATORS OF CYSTIC FIBROSIS TRANSMEMBRANE CONDUCTANCE REGULATOR” (Vertex Pharmaceuticals Incorporated, priority 2022, published 2025)
The structures given here were assigned with low confidence; some may be wrong.

By UniProt entry, the sequences of proteins in these tests, tags left out. Chains listed by the source or under a name are the forms on record and can include a tag or linker.
UniProt P13569, with tags, fused parts or gaps DEL508-508: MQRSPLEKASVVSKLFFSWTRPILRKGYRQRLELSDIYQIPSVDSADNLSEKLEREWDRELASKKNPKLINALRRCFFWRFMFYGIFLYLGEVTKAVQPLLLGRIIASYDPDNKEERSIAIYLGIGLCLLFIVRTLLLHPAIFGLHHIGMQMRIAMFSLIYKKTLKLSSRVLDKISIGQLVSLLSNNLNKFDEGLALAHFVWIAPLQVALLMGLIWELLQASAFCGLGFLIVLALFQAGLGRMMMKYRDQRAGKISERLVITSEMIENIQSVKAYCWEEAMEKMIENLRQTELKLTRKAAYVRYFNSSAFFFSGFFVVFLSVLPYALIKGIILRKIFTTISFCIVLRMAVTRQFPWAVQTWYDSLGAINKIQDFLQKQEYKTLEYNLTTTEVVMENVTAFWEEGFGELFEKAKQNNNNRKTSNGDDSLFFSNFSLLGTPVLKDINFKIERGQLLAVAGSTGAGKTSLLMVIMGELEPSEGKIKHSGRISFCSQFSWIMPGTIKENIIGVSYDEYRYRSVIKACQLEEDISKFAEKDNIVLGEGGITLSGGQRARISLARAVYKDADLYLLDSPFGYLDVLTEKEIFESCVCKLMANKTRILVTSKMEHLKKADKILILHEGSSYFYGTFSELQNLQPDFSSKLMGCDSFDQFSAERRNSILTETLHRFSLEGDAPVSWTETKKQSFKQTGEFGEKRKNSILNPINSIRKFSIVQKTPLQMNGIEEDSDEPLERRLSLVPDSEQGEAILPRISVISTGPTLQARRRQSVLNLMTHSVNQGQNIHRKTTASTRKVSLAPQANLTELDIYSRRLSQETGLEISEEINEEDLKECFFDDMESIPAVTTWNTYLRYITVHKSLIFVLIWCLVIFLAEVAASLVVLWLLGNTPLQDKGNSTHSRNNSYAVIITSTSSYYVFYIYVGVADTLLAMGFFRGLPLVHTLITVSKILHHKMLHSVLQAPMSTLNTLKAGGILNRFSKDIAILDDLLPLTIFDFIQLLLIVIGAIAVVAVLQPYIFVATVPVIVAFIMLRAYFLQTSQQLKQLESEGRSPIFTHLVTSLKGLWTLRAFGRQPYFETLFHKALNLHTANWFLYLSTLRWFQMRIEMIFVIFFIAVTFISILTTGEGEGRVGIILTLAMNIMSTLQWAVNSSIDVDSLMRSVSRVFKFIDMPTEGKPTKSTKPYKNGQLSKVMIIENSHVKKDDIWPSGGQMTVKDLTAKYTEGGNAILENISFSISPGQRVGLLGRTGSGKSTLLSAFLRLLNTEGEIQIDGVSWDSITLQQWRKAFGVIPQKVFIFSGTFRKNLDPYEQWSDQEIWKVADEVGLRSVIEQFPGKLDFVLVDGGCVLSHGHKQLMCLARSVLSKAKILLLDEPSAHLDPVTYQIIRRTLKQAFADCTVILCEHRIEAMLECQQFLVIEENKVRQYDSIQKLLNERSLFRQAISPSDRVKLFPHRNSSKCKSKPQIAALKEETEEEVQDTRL

Experiments:
[1] = target: T1, CFTR (F508del/MF-HBE cells) (Homo sapiens, UniProt P13569, DEL508-508); assay: Ussing chamber assay of CFTR-mediated short-circuit currents, Assay C (0.026 μM to 25 μM, 6 concentrations); settings: for EC50: read-out: C EC50, with 33 nM potentiator and 18 μM Tezacaftor, 20% human serum; for C Max activity (%): with 33 nM potentiator and 18 μM Tezacaftor, 20% human serum
Description: (§1) Ussing chamber experiments were performed using human bronchial epithelial (HBE) cells derived from CF subjects heterozygous for F508del and a minimal function CFTR mutation (F508del/MF-HBE) and cultured as previously described (Neuberger T, Burton B, Clark H, Van Goor F Methods Mol Biol 2011:741:39-54). After four days the apical media was removed, and the cells were grown at an air liquid interface for >14 days prior to use.
(§2) To isolate the CFTR-mediated short-circuit (ISC) current, F508del/MF-HBE grown on Costar® Snapwell™ cell culture inserts were mounted in an Ussing chamber and the transepithelial ISC was measured under voltage-clamp recording conditions (Vhold=0 mV) at 37° C. The basolateral solution contained (in mM) 145 NaCl, 0.83 K2HPO4, 3.3 KH2PO4, 1.2 MgCl2, 1.2 CaCl2, 10 Glucose, 10 HEPES (pH adjusted to 7.4 with NaOH) and the apical solution contained (in mM) 145 NaGluconate, 1.2 MgCl2, 1.2 CaCl2, 10 glucose, 10 HEPES (pH adjusted to 7.4 with NaOH) and 30 μM amiloride to block the epithelial sodium channel. Forskolin (20 μM) was added to the apical surface to activate CFTR, followed by apical addition of a CFTR inhibitor cocktail consisting of BPO, GlyH-101, and CFTR inhibitor 172 (each at 20 μM final assay concentration) to specifically isolate CFTR currents. The CFTR-mediated ISC (μA/cm^2) for each condition was determined from the peak forskolin response to the steady-state current following inhibition.
(§3) The activity of the CFTR corrector compounds on the CFTR-mediated ISC was determined in Ussing chamber studies as described above. The F508del/MF-HBE cell cultures were either incubated with the corrector compounds at a range of concentrations in combination with 33 nM (6R,12R)-17-amino-12-methyl-6,15-bis(trifluoromethyl)-13,19-dioxa-3,4,18-triazatricyclo[12.3.1.12,5]nonadeca-1(18),2,4,14,16-pentaen-6-ol and 18 μM Tezacaftor or were incubated with the corrector compounds at a single fixed concentration of 1 μM in combination with 44 nM (6R,12R)-17-amino-12-methyl-6,15-bis(trifluoromethyl)-13,19-dioxa-3,4,18-triazatricyclo[12.3.1.12,5]nonadeca-1(18),2,4,14,16-pentaen-6-ol and 18 μM Tezacaftor for 18-24 hours at 37° C. and in the presence of 20% human serum. The concentration of corrector compounds with 44 nM or 33 nM (6R,12R)-17-amino-12-methyl-6,15-bis(trifluoromethyl)-13,19-dioxa-3,4,18-triazatricyclo[12.3.1.12,5]nonadeca-1(18),2,4,14,16-pentaen-6-ol and 18 μM Tezacaftor during the 18-24 hours incubations was kept constant throughout the Ussing chamber measurement of the CFTR-mediated ISC to ensure compounds were present throughout the entire experiment. The efficacy and potency of the putative F508del correctors was compared to that of the known Vertex corrector, (14S)-8-[3-(2-{Dispiro[2.0.2.1]heptan-7-yl}ethoxy)-1H-pyrazol-1-yl]-12,12-dimethyl-2λ^6-thia-3,9,11,18,23-pentaazatetracyclo[17.3.1.111,14.05,10]tetracosa-1(22),5,7,9,19(23),20-hexaene-2,2,4-trione, in combination with 18 μM Tezacaftor and 1 μM Ivacaftor.
(§4) • Assay A: 0.1 μM to 25 μM, 6 concentrations • Assay B: 0.00001 μM to 25 μM, 12 concentrations • Assay C: 0.026 μM to 25 μM, 6 concentrations • Assay D: Activity at single concentration of 1 μM

[2] = target: T1, CFTR (F508del/MF-HBE cells); assay: Ussing chamber assay of CFTR-mediated short-circuit currents, Assay D (single concentration of 1 μM); settings: with 44 nM potentiator and 18 μM Tezacaftor, 18-24 hours, 20% human serum
Description: as §1, §2
The activity of the CFTR corrector compounds on the CFTR-mediated ISC was determined in Ussing chamber studies as described above. […]

[3] = target: T1, CFTR (F508del/MF-HBE cells); assay: Ussing chamber assay of CFTR-mediated short-circuit currents, Assay A (0.1 μM to 25 μM, 6 concentrations); settings: for EC50: read-out: A EC50, with 33 nM potentiator and 18 μM Tezacaftor, 20% human serum; for A Max activity (%): with 33 nM potentiator and 18 μM Tezacaftor, 18-24 hours, 20% human serum
Description: as §1, §2, §3, §4

[4] = target: T1, CFTR (F508del/MF-HBE cells); assay: Ussing chamber assay of CFTR-mediated short-circuit currents, Assay B (0.00001 μM to 25 μM, 12 concentrations); settings: for EC50: read-out: B EC50, with 33 nM potentiator and 18 μM Tezacaftor, 20% human serum; for B Max activity (%): with 33 nM potentiator and 18 μM Tezacaftor, 18-24 hours, 20% human serum
Description: as §1, §2
as §3, with “The efficacy and potency of the putative F508del correctors was compared to that of the known Vertex corrector, (14S)-8-[3-(2-{Dispiro[2.0.2.1]heptan-7-yl}ethoxy)-1H-pyrazol-1-yl]-12,12-dimethyl-2λ^6-thia-3,9,11,18,23-pentaazatetracyclo[17.3.1.111,14.05,10]tetracosa-1(22),5,7,9,19(23),20-hexaene-2,2,4-trione, in combination with 18 μM Tezacaftor and 1 μM Ivacaftor.” left out

Structure (SMILES)	EC50 [1] [µM]	D activity at 1 μM (%) [2]	EC50 [3] [µM]	A Max activity (%) [3]	further results
Cc1cccc(C)c1-c1cc2nc(n1)NS(=O)(=O)c1cccc(c1)C(=O)N(Cc1ncc3cc(C4CC4)n(C)c3n1)[C@H](CC(C)(C)C)CO2	1 to 3	+++ (+++ is >60%)			C Max activity (%) ([1]; 18-24 hours): +++ (+++ is >60%)
Cc1cccc(C)c1-c1nc2nc(c1C)OC[C@@H](CC(C)(C)C)N(Cc1cnc3oc(C(C)(C)C)cc3n1)C(=O)c1cccc(c1)S(=O)(=O)N2	1 to 3	+++ (+++ is >60%)			C Max activity (%) ([1]; 18-24 hours): +++ (+++ is >60%)
Cc1cccc(C)c1-c1cc2nc(n1)NS(=O)(=O)c1cccc(c1)C(=O)N(Cc1cnc3oc(C(C)C)cc3n1)[C@H](CC1CCCOC1)CO2 (single isomer, unassigned) [Compound I-66]			< 1	+++ (+++ is >60%)	
Cc1cccc(C)c1-c1cc2nc(n1)NS(=O)(=O)c1cccc(c1)C(=O)N(Cc1cnc3oc(C4CC4)cc3n1)[C@H](CCC1CC1)CO2					EC50 [4]: 3 to 30 µM; B Max activity (%) [4]: +++ (+++ is >60%)
CCC(C)(C)CC1COc2cc(-c3c(C)cccc3C)nc(n2)NS(=O)(=O)c2cccc(c2)C(=O)N1Cc1cnc2oc(C(C)C)cc2n1 (stereo not shown)	< 1	+++ (+++ is >60%)			
Cc1cccc(C)c1-c1nc2nc(c1C)OC[C@@H](COC(C)C)N(Cc1cnc3cc(C(C)(C)C(F)(F)F)n(C)c3n1)C(=O)c1cccc(c1)S(=O)(=O)N2	< 1				C Max activity (%) [1]: +++ (+++ is >60%)
Cc1cccc(C)c1-c1cc2nc(n1)NS(=O)(=O)c1cccc(c1)C(=O)N(Cc1cnc3oc(C(C)C)c(C)c3n1)[C@H](C[C@H]1CCCCO1)CO2			< 1	+++ (+++ is >60%)	
Cc1cccc(C)c1-c1cc2nc(n1)NS(=O)(=O)c1cccc(c1)C(=O)N(Cc1ccn3nc(C(C)C)cc3n1)[C@H](CC1(C)CC1)CO2	1 to 3				C Max activity (%) [1]: +++ (+++ is >60%)
Cc1cccc(C)c1-c1cc2nc(n1)NS(=O)(=O)c1cccc(c1)C(=O)N(Cc1cnc3oc(C(C)C)cc3n1)[C@H](CC13CC(C1)C3)CO2			< 1	+++ (+++ is >60%)	EC50 [4]: 3 to 30 µM; B Max activity (%) [4]: +++ (+++ is >60%)
